Percent effect of library compounds

Amino acid sequences for entries named in this document (tags omitted).
UniProt P9WFT3, whole entry: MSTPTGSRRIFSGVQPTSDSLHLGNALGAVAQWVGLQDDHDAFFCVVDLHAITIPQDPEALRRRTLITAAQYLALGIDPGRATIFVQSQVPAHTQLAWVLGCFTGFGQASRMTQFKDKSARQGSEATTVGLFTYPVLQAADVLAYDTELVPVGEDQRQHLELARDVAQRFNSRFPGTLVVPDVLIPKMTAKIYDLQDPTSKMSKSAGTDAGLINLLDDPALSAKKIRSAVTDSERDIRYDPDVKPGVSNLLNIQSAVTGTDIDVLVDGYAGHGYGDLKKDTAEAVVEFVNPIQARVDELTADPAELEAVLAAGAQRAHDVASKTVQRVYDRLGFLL

From ChEMBL document CHEMBL3988442, “University of Dundee, Small-Polar-MMV Screening Library” (2021).

MtTrpRS: 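Enzyme assay of tryptophanyl-tRNA synthetase; the read-out is not stated. Target: Tryptophan-tRNA ligase, Mycobacterium tuberculosis (UniProt P9WFT3). Tested at 10 µM. Higher most likely means stronger inhibition; the record gives no direction and few retests gave an IC50. Size under these conditions: about 65,000 compounds, about 64 of them at 50% or above in at least one test.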
Leishmania in macrophages: 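Cell assay of Leishmania donovani living inside macrophages; the read-out is not stated. Compounds at 30 µM. Direction is inferred from retests: higher values go with stronger inhibition. Size under these conditions: about 69,000 compounds, about 1,000 of them at 50% or above in at least one test.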

Values are the deposited “Percent Effect”, in %.
How 0% and 100% were set is not recorded. Most values in the screen are low, and negative values occur.
This is an unselected part of the compounds tested.
Two or more numbers in one place are separate tests of the same structure; such repeats can differ widely.
A dash means the value is not listed here; it may have been measured.

Compound | MtTrpRS | Leishmania in macrophages
Fc1ccccc1CN(CCCn1ccnc1)CC1CCOC1 (configuration not stated) | 8.668 | -
c1cncc(N2CCCC3(CCN(CCN4CCCC4)CC3)C2)c1 | -1.152 | -
CN(CCc1ccccn1)C(=O)CCC1CCCN(c2ncccn2)C1 (configuration not stated) | -4.774 | 32.12
O=C(c1ccncc1)N1CCC(O)(Cn2ccc3ccncc32)CC1 | -2.926 | 15.76
CCS(=O)(=O)Nc1ccc2c(c1)C1(CCOCC1)CN2C.O=C(O)C(F)(F)F | - | 3.718
CC(c1cccc(Cl)c1)N1CCN(S(C)(=O)=O)CC1 (configuration not stated) | -0.7064 | 22.51
CCCn1ccnc1CN1CCCC(CC)(CO)C1 (configuration not stated) | -2.21 | -2.372
O=C(Nc1ccc(Cl)cc1)c1nn(C2CCS(=O)(=O)C2)c2c1CCCC2 (configuration not stated) | -2.983 | -7.353
CCOc1cccc(C(C)NCc2c(C)nn(C)c2N(C)C)c1 (configuration not stated) | -2.466 | 11.85
Cc1cnn(CC2CN(Cc3nnc(-c4ccccc4)o3)CCO2)c1 (configuration not stated) | -3.888 | 25.24
CCCn1cc(NC(=O)c2ccc(S(C)(=O)=O)cc2)ccc1=O | -2.089 | -7.429
CN(Cc1ccc(N(C)C)cc1)C(=O)CS(=O)(=O)c1ccc(Cl)cc1 | -0.7936 | 15.86
[H][C@@]12CS(=O)(=O)C[C@]1([H])N(C(=O)N(C)C)CCN2Cc1ccccc1 | - | 26.58
O=S(=O)(NCc1ccc(S(=O)(=O)N2CCCC2)s1)c1ccc(F)cc1Cl | -1.05 | 10.5
CCCc1noc(CN2CCC(C(=O)Nc3cnn(CC)c3)CC2)n1 | 1.089 | 3.366
Cn1c(Cn2cccn2)nnc1C1CCN(Cc2ccccc2Cl)CC1 | 4.456 | -4.895
CC(=O)NC[C@]1(O)CCN(C(=O)c2ccc3c(c2)OCO3)C[C@H]1O | - | 6.35 & -9.719
[H][C@@]12CN(Cc3ccoc3)CCO[C@]1([H])CN(C(=O)CS(C)(=O)=O)C2 | - | -14.18
O=C(O)CC(O)(CC(=O)O)C(=O)O.[H][C@]12CC[C@](O)(c3ccccn3)[C@@]1([H])CN(Cc1cccc3ncccc13)C2 | - | 4.391
Fc1cccc(C2CCCN2Cc2nnnn2C2CC2)c1 (configuration not stated) | 0 | 19.06
Cc1ccc(CN2CC3(CCN(C(=O)c4cscn4)C3)C2)o1.O=C(O)C(F)(F)F | - | 39.01
O=C(COc1ccccc1Br)N1CCOc2ccncc21 | 4.332 | -16.89
COCC1CN(C(=O)c2ccnnc2)Cc2c1cnn2C (configuration not stated) | 2.291 | 8.249
Cc1ccoc1C(=O)N1C[C@@H]2[C@@H](C1)OCC(=O)N2Cc1cccnc1 | 4.3 | -
CC(=O)N1CCC(Cc2cnc(-c3c(C)n[nH]c3C)cn2)CC1 | 9.333 | 17.68 & -4.266
Cc1nc(C)n(CC2CCCN(Cc3ccc(F)cc3C#N)C2)n1 (configuration not stated) | 2.941 | 21.4
Cc1cc2c(N3CCC(N(C)Cc4cnn(C)c4)CC3)ncnc2s1 | -1.802 | 31.66
c1cnnc(NCC2CN(CCn3cncn3)CCO2)c1 (configuration not stated) | 0.6721 | -23.18
Cn1nnnc1SCCNC(=O)C1CCN(C(=O)C2CCC2)CC1 | -3.123 | 12.14
CN(C)c1ncccc1CNC(=O)N(Cc1ccccc1F)C1CC1 | -2.584 | -2.689
CN1CCN(Cc2cn3c(n2)CN(C(=O)N2CCCC2)CC3)CC1 | -1.766 | 14.72
CN1CCCc2cc(CNC(=O)c3ccncc3)ccc21 | 3.996 | 39.27
CCOC(=O)C1CCN(c2cc(C(=O)N3CCOCC3)nc(C)n2)CC1 | 0.6461 | 16.96
CN1CCN(CC2CC2)C(=O)C12CCN(C(=O)CC(F)(F)F)CC2.O=C(O)C(F)(F)F | - | 26.94
[H][C@@]12CCN(C[C@@H]1CN(C)c1ccccc1)[C@@H](CNC(=O)c1ccco1)C2 | - | 32.56
Cc1noc(C)c1CN(C)c1ncnc2ccccc12 | -6.59 | 12.67
N#Cc1ccccc1C(=O)N1C[C@@H](CN2CCOCC2)[C@@H](CO)C1 | -0.5072 | -12.65
Cc1nc(C)c(CN2CCOC[C@H](Oc3cnccn3)C2)s1 | -0.6506 | 21.5
[H][C@@]12C[C@@H](C(=O)NC)N(C(C)C)[C@]1([H])CN(C(=O)c1ccccn1)C2 | - | 15.97 & -18.97
Cc1cccc(OCC2CCCN(C(=O)CN(C)C3CCNCC3)C2)c1 (configuration not stated) | -2.468 | 48.81
CN(C)C1CCCN(C(=O)CCc2csc(N)n2)CC1 (configuration not stated) | 0.243 | 2.012
CC(Cc1cnccn1)NC(=O)c1cccc(CC2CCNCC2)c1 (configuration not stated) | -1.857 | 4.92
Cn1cnnc1C1CCN(C(=O)CCCOc2ccccc2F)CC1 | 2.638 | -24.27
[H][C@]12CNCCN1C[C@H](c1ccccc1)[C@H]2C(=O)OCC | - | 0.794
O=C1CC(c2ccncc2)c2c(sc3c2CCCC3)N1 (configuration not stated) | 2.039 | 36.86
COc1cc(NC(=O)NCc2cc(C)oc2C)cc(OC)c1 | 3.602 | 23.92
CCCc1ccc(CN2CCN(C(=O)N(C)C)[C@@H]3CS(=O)(=O)C[C@@H]32)o1 | -1.383 | -
CCc1nc(-c2ccc(C(=O)N3CCC4(CC3)OCCO4)cc2)no1 | -1.295 | 28.97 & 0.9279
COc1cc(CNC2CCc3nc(C)nn3C2)cc2c1OCO2 (configuration not stated) | -6.381 | 34.23
CNC(=O)N1CCc2cc(C(=O)N(C)C)c(NCC3CC3)nc2CC1 | 1.341 | -
O=C(NCC1CC1)C1CN(C(=O)c2cccs2)CC12CCOCC2 (configuration not stated) | 1.784 | 18.63
Cn1nc(Cn2ccnc2)c2c1CN(Cc1ccoc1)C2 | 8.43 | -
CCOC(=O)N1CCC(OC)c2ccccc2N(CC(=O)NC)C(=O)C1 (configuration not stated) | - | -1.103
CC(=O)c1ccc(S(=O)(=O)N2CCC(c3n[nH]c(C)n3)CC2)cc1 | 9.384 | -15.28
O=C(O)C(F)(F)F.O=C(O)C(F)(F)F.O=C(O)C(F)(F)F.[H][C@@]12CCCO[C@]1([H])[C@H](N(CC)CC)CN2Cc1nccn1C | - | 7.85
COC(=O)CCn1ccc(=O)c2ccc(OC)cc21 | 1.364 | -54.71
CCN(CC)C(=O)CNS(=O)(=O)c1cc(Br)ccc1F | -4.004 | 4.175
Cc1n[nH]c2nc(-c3cccc(Cl)c3)cc(C(=O)O)c12 | -0.678 | 5.224
O=C(O)C(F)(F)F.[H][C@@]12CCN(Cc3c(C)noc3C)C[C@]1(C(=O)NC1CCCC1)CCO2 | - | 33.85
COc1ccc(-c2cc(C3CCOC3)c(C#N)c(N)n2)cn1 (configuration not stated) | -0.243 | -2.665
Cc1cc(N2CCN(C(=O)c3cc(Cl)c[nH]3)CC2)nc(C(C)C)n1 | 3.502 | -7.359
COc1cc(C2(C(=O)N3CCN(CC(C)O)CC3)CC2)ccc1C (configuration not stated) | 5.056 | -10.74
CN(CC1CCOCC1)C(C(=O)O)c1cccc(F)c1F (configuration not stated) | 0.9213 | 6.358
O=C(C1CC1)N1CCC2(CCN2Cc2ccc(F)cc2)C1.O=C(O)C(F)(F)F (configuration not stated) | - | 4.493
CCN(CC)C(=O)Cn1ccc2cc(NC(=O)NC3CC3)ccc21 | -0.565 | 18.91
CN(C(=O)CN1CCC(c2cc3ccccc3[nH]2)CC1)C1CC1 | -3.01 | 3.417

6 of the entries, repeated:

CCCn1cc(NC(=O)c2ccc(S(C)(=O)=O)cc2)ccc1=O gave MtTrpRS: -2.089%; Leishmania in macrophages: -7.429%.
CN(C)c1ncccc1CNC(=O)N(Cc1ccccc1F)C1CC1 gave MtTrpRS: -2.584%; Leishmania in macrophages: -2.689%.
CNC(=O)N1CCc2cc(C(=O)N(C)C)c(NCC3CC3)nc2CC1 gave MtTrpRS: 1.341%.
Cc1cc(N2CCN(C(=O)c3cc(Cl)c[nH]3)CC2)nc(C(C)C)n1 gave MtTrpRS: 3.502%; Leishmania in macrophages: -7.359%.
CN(CC1CCOCC1)C(C(=O)O)c1cccc(F)c1F (configuration not stated) gave MtTrpRS: 0.9213%; Leishmania in macrophages: 6.358%.
Cn1nc(Cn2ccnc2)c2c1CN(Cc1ccoc1)C2 gave MtTrpRS: 8.43%.